Laboratory results taken from publication PMC10256737.
No constants are given. Whether binding was seen depends on the method and setting. Binding seen in cells or lysates may run through a third protein. Some results given as binding are weak or reduced against the parent protein; the word gives no strength.

Target: T1, Capping actin protein, gelsolin-like (CAPG) (human (endogenous in THP-1)) (UniProt P40121)
T1 sequence: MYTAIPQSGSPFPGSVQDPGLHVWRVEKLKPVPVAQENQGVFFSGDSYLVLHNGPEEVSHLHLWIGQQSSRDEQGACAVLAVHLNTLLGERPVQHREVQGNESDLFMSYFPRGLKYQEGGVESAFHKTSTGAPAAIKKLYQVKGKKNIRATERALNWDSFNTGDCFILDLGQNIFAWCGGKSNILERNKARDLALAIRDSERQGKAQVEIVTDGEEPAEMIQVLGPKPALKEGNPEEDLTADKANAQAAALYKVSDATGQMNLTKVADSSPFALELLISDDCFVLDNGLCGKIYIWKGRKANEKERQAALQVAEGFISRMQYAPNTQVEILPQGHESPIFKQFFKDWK
Assay: co-IP; co-IP of CAPG with RPL4, ZFP91, CCAR2 (Fig. 3c); cells, antibodies and direction not told in the text shown

B1: ZFP91 (protein, UniProt Q96JP5 1-570)
chain: MPGETEEPRPPEQQDQEGGEAAKAAPEEPQQRPPEAVAAAPAGTTSSRVLRGGRDRGRAAAAAAAAAVSRRRKAEYPRRRRSSPSARPPDVPGQQPQAAKSPSPVQGKKSPRLLCIEKVTTDKDPKEEKEEEDDSALPQEVSIAASRPSRGWRSSRTSVSRHRDTENTRSSRSKTGSLQLICKSEPNTDQLDYDVGEEHQSPGGISSEEEEEEEEEMLISEEEIPFKDDPRDETYKPHLERETPKPRRKSGKVKEEKEKKEIKVEVEVEVKEEENEIREDEEPPRKRGRRRKDDKSPRLPKRRKKPPIQYVRCEMEGCGTVLAHPRYLQHHIKYQHLLKKKYVCPHPSCGRLFRLQKQLLRHAKHHTDQRDYICEYCARAFKSSHNLAVHRMIHTGEKPLQCEICGFTCRQKASLNWHMKKHDADSFYQFSCNICGKKFEKKDSVVAHKAKSHPEVLIAEALAANAGALITSTDILGTNPESLTQPSDGQGLPLLPEPLGNSTSGECLLLEAEGMSKSYCSGTERVSLMADGKIFVGSGSSGGTEGLVMNSDILGATTEVLIEDSDSAGP
In the case of B1, the binding is reported as “binds”.
